The values that follow come from PubChem BioAssay AID1508600 (Functional Genomics Laboratory (NCATS/FGL), 2020).

Hit rate of the full screen: of about 53,000 sequences, about 3,700 (7%) were called active.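 The calls were made as follows: active = gene knockdowns whose robust z-score for IL-1 alpha signal is at least 2 or at most -2, so actives lie on both sides; inactive = the rest.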 This is one part of the list.

The assay in a line: Components of the Cytosolic LPS Sensing Pathway: Gene Identification via Genome-wide siRNA Screen.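 Also: robust z of the log signal after scaling to non-targeting control siRNA wells of the plate.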 As to conditions: RAW264.7 macrophages, IL-1a HTRF, actives lie on both sides, screened at 100 nM (by protocol), cells primed 5 h with Pam3CSK4 first. The method in brief: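 Read-out: IL-1a HTRF on supernatant, divided by plate negative-control median ×100, log-transformed and converted to robust z-score. Cells were RAW264.7 given 100 nM siRNA, Pam3CSK4-primed 5 hours, then LipidA-transfected 24 hour.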
In general terms: Time-resolved FRET reads energy transfer from a long-lived donor to a nearby acceptor.
As for GGUAGUGAAGUUCUCCUACTT against Spop, the z-score was inactive: 0.256.
The value for CCUUGUUAUUAGGAACUCUTT against Xpo7 was inactive: 1.96.
The value for GGAAGACAGCAUGUGGACATT against Ghrh was inactive: -1.32; that for GGAAGCCUUUUGAUGACGCTT against Gsta3 was inactive: -1.46.
As to GGCAUGAUGCUGAUCAUUCTT against Olfr1100, the z-score was inactive: -0.0763.
Under GGCAUUAUUAAAAGUGUGATT against Psmd9 stands inactive: 0.208.
The value for GCUGUCUAAUGUCAAUUCUTT against Txnrd1 was inactive: 0.258; that for GGGAUGAUGCCAAAUAUAUTT against Kl was inactive: 1.29.
Under GGUGCCUAGUUUGUGGAUATT against Gatd3a stands inactive: 0.542; under GCUGUUGGUUGAGCCUGAATT against Ager, inactive: -0.29; under GGAGUAUGGUAUCAACCCGTT against Pgp, inactive: -0.15.
Turning to GGAGAAAGACAAGGAAAAUTT against Clk3, the z-score was inactive: -1.56.
The value for CCCAUCAAUAUCAUAUCCATT against Car7 was active: -2.34; that for GGUUUUCAAAGUCUUUUACTT against Pptc7 was inactive: 0.853.
GGAAAUCAAGAAAGCACAGTT against Guk1: the z-score is inactive: 0.244.
Under GGCAGUCAAAUUUAUAGUATT against Ckap4 stands inactive: 0.32; under GCUAUCUAGAGCCAAGAGCTT against Bahcc1, active: 2.27.
The value for GCACCCUACCUGCUAAUGUTT against Slitrk1 was active: 3.59.
Under GGAAUUGGAUUCAGUUUACTT against Ppp3ca stands inactive: 1.97; under GCGACAUCUCUCAAGCUUATT against Carmil3, inactive: 0.555; under GGCAAUAUCCGGUUUUUAGTT against Sema6d, inactive: 0.551.
For GGCAGCAUGAAAGAAAAAATT against Eme1, the z-score is inactive: -0.307.
Under GCGAGUGAAAAACCAAGGCTT against Loxl1 stands inactive: -0.797.
Under GCUCAGACAAGAAUUGCUATT against Specc1 stands inactive: -0.612; under GGAAUUCUCCAGAAAGCUCTT against Atrip, inactive: -0.855; under GGCCAUGUGGUUCCUGCUUTT against Scnn1b, inactive: -1.67.
Under GGACAUUUUUAUUAGUGGATT against Gtpbp8 stands inactive: 1.04; under CGUAAAACUCUUAGGCAUGTT against Npm1, inactive: 1.13.
In the case of GGAAUUCAAGGAUCGAUCUTT against Tnfrsf19, the z-score is inactive: -0.188.
For GGUCACGACUCUUCAUGAUTT against Nrl, the z-score was inactive: -1.79.
With CGACAAACCCAAGAUCACGTT against Slc32a1, the z-score is inactive: -0.439.
Under GCCAAGAAGUCGGUGGACATT against Cebpa stands inactive: -0.399.
For the sequence CCUGCUCUUCCGAUGCUCATT against Chkb, the z-score is inactive: 0.87.
The value for GGACGUAUCCAUCACUGUUTT against Scn3b was inactive: -0.897.
Under GUACCUCAUUUUUAGCACATT against Vmn1r18 stands inactive: 0.629.
Under GGGAGCUUCCAUGUUGACATT against Uqcr11 stands inactive: 0.13; under GGUCUACAUUCGGAUAAAATT against Snx29, inactive: 0.469.
In the case of CGUUCCGAAGCAACAUCGUTT against Slc9a4, the z-score was inactive: 0.319.
GGUUUCACCAGCCAAUGUCTT against Ltk: the z-score was inactive: 0.439.
Under GGAAAUAAGAGAGAGUACATT against Pcbp2 stands inactive: -0.694.
Under GGAAAAAGCGGAAAUUCAGTT against Pgbd5 stands inactive: -0.276; under GGAAAAGGUAGGGACCUAUTT against Cramp1l, inactive: -1.13; under GCAGCAUGUUCGUCUUUGGTT against Lztr1, inactive: -1.77.
The value for CGUGUACGUCAUGGUAUUUTT against Map2k1 was inactive: 0.232; that for GGAUUGUUCGAGCUAAAAATT against Tnfsf10 was inactive: 1.45; that for GGAAUUAGACAUUCGAACATT against Rnf20 was inactive: 0.0635.
On to GGUAGCAUUAUGGGUGAGGTT against Pik3ip1, for which the z-score is inactive: -0.0677.
The value for CCUAUGUGCGUUCCAAGCATT against Eif5b was inactive: -0.432; that for GCUCGAUUGACCUCAUUCATT against Rhbdf2 was active: -2.45; that for GGCCACUAGUAAGAAGAAATT against Usp19 was inactive: 1.53.
Under GGAAAUACGAAAAGUUGUATT against Tsn stands inactive: -0.928.
The value for GGCCACGUUUCUCUUCACCTT against Nyx was inactive: -1.12; that for GGAGUUGCUUAUCUAUGAATT against Cpsf1 was inactive: -0.138.
For CCUAACACCAGUUGUGUUUTT against Pbx2, the z-score was inactive: 0.25.
The value for CCAGGAGUACAAACACUAUTT against Stap1 was inactive: 0.493; that for GGCCAAAACCUAUGAAUUCTT against Cbx8 was inactive: -0.293; that for GACUCUGUGGGUUCAAAAATT against Antkmt was inactive: -0.237.
Under GGAUGGUAGAGUCUCUUAUTT against Olfr414 stands inactive: 1.64.
Under GGAAGUCUCGAUAUCAUUCTT against Cd300lg stands inactive: 0.565.
With GGAUCUCGAAAGAACUGAUTT against Hoatz, the z-score is inactive: -1.49.
The value for CCUACAGCCACCUAAUAGATT against Olfr1196 was inactive: -0.346; that for GGACCAGUUUAUCCAGCACTT against Mc3r was inactive: -0.699; that for “GCUAGAAUCAUGGCAAAUATT against 9530002B09Rik” was inactive: -1.3.
The value for GGUGGUUUAUGAAAUACCATT against Napepld was inactive: 0.916; that for GGUAUCACGAGCAUUCUCATT against Rrh was inactive: -0.845; that for GCACUUUCAGCGGUCUCAUTT against Card14 was inactive: -0.789.
Under CCGUAGACCCGGUUUAUGATT against Pxylp1 stands inactive: 0.316; under GCGCAAGGAAUACAUGGUGTT against Rnasek, inactive: -0.482; under GGUAUACGUGGACAACAGCTT against Esr1, inactive: -0.975.
In the case of GCUAUACCAGGAGGUAGAUTT against Arhgef40, the z-score was inactive: -0.504.
The value for CCACGCAAAAGAAUAUAAGTT against Mtss1 was inactive: 0.464; that for CGCAGAGAUUGUGCGGACUTT against Myg1 was inactive: 0.245; that for “GGGAUUGAAAGAAGAAAAGTT against 1700029P11Rik” was inactive: -0.952.
The value for GCCUGUCAUUAAUCUGACATT against Kazn was inactive: -1.61; that for GCAAAAAACUACUUUUACCTT against Chrna1 was inactive: 0.103.
The value for GGAUGUUUUUGAACUACAUTT against Brdt was inactive: 1.51.
With GGUAUGGAAGAAGAAGCGCTT against Phlda2, the z-score is inactive: -0.584.
With CCUAGAGAUGUCAGUACUATT against Tas2r123, the z-score is inactive: -0.264.
Under GGGUUCAAAUAGUUUACCUTT against Tmem33 stands inactive: 0.156; under CCCUAUUUUAACCGUGUUATT against Vrtn, inactive: -1.18.
Under GGUUAUGGCCUGUAUUAGATT against Hsd17b13 stands inactive: 1.06; under GGUGAAAGACCAAAGAAACTT against Gpatch1, inactive: -1.12.
Under GGGAUAUUGUUUUUUACAGTT against Tmem50b stands inactive: -0.921; under GGAUGGAUCGUUUCUUAUUTT against Blnk, inactive: 0.7; under GGAUGUGCCUGCCACUAUUTT against Cyp1b1, inactive: 1.15.
Regarding CGGCUCACAAAUAUACAGUTT against Pira1, the z-score was inactive: -0.12.
Consider GGCAAAAUAGAGAAAUACATT against Lima1, for which the z-score was active: 2.37.
Under GCCUGAUCGAUACGUGAUCTT against Naaladl1 stands active: 3.35; under CCUGAUGCCAGAAUCUAAGTT against Ermap, inactive: 0.618.
GCCUGAACUGGCUAGAAAUTT against Psmg2: the z-score is inactive: -0.19.
The value for GGAGCUUCUCAUGACCUUUTT against Mettl21e was inactive: 0.307; that for GGAGGAUUCAUGCUUUGUUTT against Morc2b was inactive: 0.238; that for GCGCUAGAAGGCCAGAUAUTT against Orm3 was inactive: -0.155.
The value for CGCACACAGUCGUAUGUACTT against Ryr1 was inactive: -1.21.
The value for GGACUAGAAUGUGACCUUGTT against Anks6 was inactive: -1.46.
Turning to GCCCUGAAAAACAUGCAACTT against Tmco3, the z-score is inactive: 0.469.
The value for GCUUAUAGUUCAGUUUUUGTT against Ints8 was inactive: 0.835; that for GGAAACAAUUCAUGAGCAUTT against Ints13 was inactive: 1.49; that for CCGACUGGGCUCUUUUUACTT against Dbnl was inactive: 0.651.
Under GCUAUACAUCAUGGUAUCCTT against Dlx1 stands inactive: -0.632; under GCAGGUGCCUUCAAAAACCTT against Pm20d2, inactive: -0.926.
The value for GGGAAAUGGAAAGCAUUCUTT against Olfr374 was inactive: 1.41; that for GGUUCUGACAGACAAAAUUTT against Luc7l3 was inactive: -0.379.
Regarding GGAAUGGAAACAGAGUUAUTT against Zfp641, the z-score is inactive: 0.342.
The value for GGAAAUGAAGGUUGCAAUGTT against Olfr1317 was inactive: 0.523; that for GGAUCUUAUUACUUCAAUGTT against Slc44a1 was inactive: 0.204; that for GGGAUGGAGGAGGAGCUUATT against Bad was inactive: 0.86.
